Results are given in words; binding and its absence hold for the method and conditions named. Binding seen in cells or lysates may run through a third protein. Some results given as binding are weak or reduced against the parent protein; the word gives no strength.
Target: Dmrt2 (double-sex and mab-3 related transcription factor 2) (mouse) (UniProt Q8BG36)
Experiment: co-IP; cell lysates immunoprecipitated with anti-Flag antibody, then immunoblotted with anti-HA antibody; cell type not stated

The chains behind the UniProt entries cited, without tags or fusion partners.
UniProt Q8BG36: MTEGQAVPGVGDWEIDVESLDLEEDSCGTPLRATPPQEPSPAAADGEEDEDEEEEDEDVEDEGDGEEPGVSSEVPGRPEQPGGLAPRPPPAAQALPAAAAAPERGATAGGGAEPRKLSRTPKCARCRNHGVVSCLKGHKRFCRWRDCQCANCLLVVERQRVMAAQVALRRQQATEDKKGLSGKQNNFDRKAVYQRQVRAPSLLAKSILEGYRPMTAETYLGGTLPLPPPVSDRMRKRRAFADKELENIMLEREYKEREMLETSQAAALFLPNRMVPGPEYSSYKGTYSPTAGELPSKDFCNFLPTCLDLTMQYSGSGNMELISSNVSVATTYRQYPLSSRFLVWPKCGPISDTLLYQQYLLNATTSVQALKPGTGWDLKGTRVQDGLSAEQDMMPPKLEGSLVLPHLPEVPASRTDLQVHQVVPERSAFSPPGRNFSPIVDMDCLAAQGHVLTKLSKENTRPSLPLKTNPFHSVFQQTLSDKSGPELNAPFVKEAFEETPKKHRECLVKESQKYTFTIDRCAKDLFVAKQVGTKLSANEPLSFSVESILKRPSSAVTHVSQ
UniProt Q08775: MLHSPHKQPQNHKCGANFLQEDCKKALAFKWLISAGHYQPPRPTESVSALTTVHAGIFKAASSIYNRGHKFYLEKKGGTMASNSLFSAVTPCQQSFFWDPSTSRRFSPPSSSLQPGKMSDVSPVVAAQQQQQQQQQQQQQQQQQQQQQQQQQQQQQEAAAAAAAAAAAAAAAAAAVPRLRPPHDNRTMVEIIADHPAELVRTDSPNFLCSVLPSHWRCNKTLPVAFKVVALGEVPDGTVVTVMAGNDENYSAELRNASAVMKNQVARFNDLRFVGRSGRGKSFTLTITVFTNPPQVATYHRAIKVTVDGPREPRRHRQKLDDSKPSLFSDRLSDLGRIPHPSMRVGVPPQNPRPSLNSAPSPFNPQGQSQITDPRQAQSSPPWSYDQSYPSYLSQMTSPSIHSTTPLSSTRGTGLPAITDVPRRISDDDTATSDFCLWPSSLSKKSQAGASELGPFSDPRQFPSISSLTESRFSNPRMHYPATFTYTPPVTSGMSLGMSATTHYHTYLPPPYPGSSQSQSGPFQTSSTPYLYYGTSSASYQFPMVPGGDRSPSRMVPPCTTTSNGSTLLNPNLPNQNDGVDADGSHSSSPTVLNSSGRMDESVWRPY

binding: binds
Substance: Runx2 (runt-related transcription factor 2) (from UniProt Q08775 1-607)

Reference: PMC7952723
